Holding throughout (assay): log2 fold change, soluble protein after heating vs DMSO (PISA); higher = thermal stabilisation; K562 lysate, 10 uM; active = over 0.2 and 3.5 SD of the protein, either way, in both replicates (recomputed)
Compound in assay [1]: CC1=C2C(=CC=C1)N=C(N(C2=O)C3=CC=CC=C3C)CN4C=NC5=C(N=CN=C54)N
Summed up: (§1)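 K562 pellets were dounce-homogenised in PBS pH 7.4 containing 1 mM MgCl2, and the crude extract, at 1 mg/mL protein, was exposed to 10 μM compound for 30 min. Aliquots were heated for 3 min across 48°C-58°C, pooled, brought to 0.5% NP-40 at 4°C and spun at 21,000xg for 90 min, with the supernatant taken as soluble protein. TMTpro 16plex LC-MS/MS with equalised channel sums quantified that protein. Values are log-two fold changes in thermal stability relative to solvent controls, taken from duplicates.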

Amino acid sequences for entries named in this document (tags omitted). A change or cut given only in a name is not applied to a line headed by its entry.
UniProt Q504U0: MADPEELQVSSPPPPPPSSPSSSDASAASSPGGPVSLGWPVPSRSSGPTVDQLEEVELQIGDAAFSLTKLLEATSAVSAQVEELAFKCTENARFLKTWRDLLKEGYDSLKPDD
UniProt Q9NWQ9: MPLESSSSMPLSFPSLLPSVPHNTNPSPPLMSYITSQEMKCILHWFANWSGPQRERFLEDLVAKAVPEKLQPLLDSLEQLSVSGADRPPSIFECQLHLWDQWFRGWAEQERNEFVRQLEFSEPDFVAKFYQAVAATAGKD
UniProt Q8N3J3: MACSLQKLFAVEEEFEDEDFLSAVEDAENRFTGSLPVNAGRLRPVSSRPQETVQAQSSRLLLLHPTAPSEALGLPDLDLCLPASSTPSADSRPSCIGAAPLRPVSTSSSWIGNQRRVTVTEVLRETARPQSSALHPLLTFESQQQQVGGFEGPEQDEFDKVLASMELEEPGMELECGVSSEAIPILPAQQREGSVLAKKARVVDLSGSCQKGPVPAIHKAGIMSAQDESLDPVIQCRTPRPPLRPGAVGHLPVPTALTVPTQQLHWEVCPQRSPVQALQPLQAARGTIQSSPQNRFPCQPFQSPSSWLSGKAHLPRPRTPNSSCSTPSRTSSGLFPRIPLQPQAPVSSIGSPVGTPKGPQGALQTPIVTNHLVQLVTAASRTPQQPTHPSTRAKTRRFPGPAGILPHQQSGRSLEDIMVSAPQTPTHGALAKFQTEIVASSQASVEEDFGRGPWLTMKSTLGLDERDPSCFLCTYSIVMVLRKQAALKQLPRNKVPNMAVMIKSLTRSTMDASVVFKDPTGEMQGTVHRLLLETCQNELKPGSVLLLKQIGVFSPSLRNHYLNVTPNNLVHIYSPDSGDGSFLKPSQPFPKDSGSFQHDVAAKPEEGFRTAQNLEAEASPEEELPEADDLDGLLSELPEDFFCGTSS
UniProt P04003: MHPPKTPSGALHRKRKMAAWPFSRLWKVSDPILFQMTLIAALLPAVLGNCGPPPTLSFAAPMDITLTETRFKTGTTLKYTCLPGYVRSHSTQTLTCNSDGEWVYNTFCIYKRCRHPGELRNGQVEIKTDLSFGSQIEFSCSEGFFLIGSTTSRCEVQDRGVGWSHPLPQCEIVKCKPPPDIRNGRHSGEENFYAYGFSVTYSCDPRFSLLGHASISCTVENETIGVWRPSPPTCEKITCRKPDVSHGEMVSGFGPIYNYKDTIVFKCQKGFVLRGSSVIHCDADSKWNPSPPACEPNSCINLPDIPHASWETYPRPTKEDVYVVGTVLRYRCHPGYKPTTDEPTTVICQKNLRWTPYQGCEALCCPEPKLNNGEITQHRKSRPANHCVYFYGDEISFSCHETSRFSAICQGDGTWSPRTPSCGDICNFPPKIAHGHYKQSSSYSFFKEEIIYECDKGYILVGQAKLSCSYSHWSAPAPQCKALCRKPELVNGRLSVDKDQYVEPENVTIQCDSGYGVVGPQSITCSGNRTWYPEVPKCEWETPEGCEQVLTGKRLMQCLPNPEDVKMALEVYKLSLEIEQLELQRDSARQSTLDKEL
UniProt Q9BSF0: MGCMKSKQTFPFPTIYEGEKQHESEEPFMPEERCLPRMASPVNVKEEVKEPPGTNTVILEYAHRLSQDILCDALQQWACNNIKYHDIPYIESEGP
UniProt Q9GZU0: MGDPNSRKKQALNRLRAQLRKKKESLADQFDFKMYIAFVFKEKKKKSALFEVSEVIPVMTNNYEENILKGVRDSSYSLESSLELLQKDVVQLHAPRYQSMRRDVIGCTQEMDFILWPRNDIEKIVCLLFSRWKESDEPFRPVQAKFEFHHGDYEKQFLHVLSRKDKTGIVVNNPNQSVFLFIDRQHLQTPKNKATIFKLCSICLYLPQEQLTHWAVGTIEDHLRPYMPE
UniProt Q5U649: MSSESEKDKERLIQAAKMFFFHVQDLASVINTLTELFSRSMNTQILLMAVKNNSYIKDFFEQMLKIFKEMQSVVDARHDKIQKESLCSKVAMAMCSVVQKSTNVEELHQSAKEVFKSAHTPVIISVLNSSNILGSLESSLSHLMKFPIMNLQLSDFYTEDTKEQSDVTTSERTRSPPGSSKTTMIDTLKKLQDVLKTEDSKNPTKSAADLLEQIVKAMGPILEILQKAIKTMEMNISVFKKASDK
UniProt Q16581: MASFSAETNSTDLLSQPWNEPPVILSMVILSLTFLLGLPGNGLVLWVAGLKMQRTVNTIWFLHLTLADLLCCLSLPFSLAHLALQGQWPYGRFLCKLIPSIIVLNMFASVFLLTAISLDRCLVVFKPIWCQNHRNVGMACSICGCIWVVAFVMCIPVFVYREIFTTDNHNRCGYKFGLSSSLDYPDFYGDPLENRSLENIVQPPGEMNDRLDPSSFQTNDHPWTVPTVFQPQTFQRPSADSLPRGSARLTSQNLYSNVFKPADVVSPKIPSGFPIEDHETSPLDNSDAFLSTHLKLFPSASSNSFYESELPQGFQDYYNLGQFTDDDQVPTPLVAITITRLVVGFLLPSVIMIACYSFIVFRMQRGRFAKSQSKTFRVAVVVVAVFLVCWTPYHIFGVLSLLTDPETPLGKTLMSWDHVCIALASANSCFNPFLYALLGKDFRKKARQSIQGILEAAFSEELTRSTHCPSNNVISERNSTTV
UniProt Q9P1Y5: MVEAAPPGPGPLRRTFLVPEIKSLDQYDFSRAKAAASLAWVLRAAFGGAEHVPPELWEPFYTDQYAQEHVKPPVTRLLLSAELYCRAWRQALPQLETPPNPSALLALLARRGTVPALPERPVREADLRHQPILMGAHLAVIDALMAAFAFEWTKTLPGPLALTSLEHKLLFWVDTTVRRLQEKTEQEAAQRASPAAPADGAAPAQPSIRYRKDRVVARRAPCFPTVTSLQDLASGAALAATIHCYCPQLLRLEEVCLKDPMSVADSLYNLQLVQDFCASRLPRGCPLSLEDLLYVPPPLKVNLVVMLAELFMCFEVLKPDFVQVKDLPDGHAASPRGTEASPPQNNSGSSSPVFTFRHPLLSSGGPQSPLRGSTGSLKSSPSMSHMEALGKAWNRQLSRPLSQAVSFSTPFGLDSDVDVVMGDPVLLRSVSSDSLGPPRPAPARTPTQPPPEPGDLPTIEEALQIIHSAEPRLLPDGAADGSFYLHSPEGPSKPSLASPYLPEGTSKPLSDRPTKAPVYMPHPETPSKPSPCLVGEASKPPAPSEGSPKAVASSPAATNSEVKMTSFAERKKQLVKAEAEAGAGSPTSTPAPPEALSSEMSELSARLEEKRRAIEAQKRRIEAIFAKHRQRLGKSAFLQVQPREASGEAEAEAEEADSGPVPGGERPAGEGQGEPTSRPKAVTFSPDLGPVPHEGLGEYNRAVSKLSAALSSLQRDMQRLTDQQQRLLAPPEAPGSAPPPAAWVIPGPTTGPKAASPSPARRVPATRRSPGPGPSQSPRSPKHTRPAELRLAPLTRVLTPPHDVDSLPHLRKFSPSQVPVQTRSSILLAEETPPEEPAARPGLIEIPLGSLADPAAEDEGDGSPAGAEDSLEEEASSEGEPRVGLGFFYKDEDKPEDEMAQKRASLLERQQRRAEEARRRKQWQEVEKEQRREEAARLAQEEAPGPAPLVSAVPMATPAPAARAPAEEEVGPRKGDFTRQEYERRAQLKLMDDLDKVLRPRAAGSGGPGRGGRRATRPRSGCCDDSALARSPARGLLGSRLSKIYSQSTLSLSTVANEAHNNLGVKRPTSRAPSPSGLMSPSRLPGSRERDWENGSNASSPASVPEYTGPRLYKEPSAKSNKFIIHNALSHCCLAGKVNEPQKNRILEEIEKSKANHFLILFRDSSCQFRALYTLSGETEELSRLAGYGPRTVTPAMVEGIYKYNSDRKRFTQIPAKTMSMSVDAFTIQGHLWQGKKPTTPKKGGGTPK
UniProt Q13936, whole entry, looked up: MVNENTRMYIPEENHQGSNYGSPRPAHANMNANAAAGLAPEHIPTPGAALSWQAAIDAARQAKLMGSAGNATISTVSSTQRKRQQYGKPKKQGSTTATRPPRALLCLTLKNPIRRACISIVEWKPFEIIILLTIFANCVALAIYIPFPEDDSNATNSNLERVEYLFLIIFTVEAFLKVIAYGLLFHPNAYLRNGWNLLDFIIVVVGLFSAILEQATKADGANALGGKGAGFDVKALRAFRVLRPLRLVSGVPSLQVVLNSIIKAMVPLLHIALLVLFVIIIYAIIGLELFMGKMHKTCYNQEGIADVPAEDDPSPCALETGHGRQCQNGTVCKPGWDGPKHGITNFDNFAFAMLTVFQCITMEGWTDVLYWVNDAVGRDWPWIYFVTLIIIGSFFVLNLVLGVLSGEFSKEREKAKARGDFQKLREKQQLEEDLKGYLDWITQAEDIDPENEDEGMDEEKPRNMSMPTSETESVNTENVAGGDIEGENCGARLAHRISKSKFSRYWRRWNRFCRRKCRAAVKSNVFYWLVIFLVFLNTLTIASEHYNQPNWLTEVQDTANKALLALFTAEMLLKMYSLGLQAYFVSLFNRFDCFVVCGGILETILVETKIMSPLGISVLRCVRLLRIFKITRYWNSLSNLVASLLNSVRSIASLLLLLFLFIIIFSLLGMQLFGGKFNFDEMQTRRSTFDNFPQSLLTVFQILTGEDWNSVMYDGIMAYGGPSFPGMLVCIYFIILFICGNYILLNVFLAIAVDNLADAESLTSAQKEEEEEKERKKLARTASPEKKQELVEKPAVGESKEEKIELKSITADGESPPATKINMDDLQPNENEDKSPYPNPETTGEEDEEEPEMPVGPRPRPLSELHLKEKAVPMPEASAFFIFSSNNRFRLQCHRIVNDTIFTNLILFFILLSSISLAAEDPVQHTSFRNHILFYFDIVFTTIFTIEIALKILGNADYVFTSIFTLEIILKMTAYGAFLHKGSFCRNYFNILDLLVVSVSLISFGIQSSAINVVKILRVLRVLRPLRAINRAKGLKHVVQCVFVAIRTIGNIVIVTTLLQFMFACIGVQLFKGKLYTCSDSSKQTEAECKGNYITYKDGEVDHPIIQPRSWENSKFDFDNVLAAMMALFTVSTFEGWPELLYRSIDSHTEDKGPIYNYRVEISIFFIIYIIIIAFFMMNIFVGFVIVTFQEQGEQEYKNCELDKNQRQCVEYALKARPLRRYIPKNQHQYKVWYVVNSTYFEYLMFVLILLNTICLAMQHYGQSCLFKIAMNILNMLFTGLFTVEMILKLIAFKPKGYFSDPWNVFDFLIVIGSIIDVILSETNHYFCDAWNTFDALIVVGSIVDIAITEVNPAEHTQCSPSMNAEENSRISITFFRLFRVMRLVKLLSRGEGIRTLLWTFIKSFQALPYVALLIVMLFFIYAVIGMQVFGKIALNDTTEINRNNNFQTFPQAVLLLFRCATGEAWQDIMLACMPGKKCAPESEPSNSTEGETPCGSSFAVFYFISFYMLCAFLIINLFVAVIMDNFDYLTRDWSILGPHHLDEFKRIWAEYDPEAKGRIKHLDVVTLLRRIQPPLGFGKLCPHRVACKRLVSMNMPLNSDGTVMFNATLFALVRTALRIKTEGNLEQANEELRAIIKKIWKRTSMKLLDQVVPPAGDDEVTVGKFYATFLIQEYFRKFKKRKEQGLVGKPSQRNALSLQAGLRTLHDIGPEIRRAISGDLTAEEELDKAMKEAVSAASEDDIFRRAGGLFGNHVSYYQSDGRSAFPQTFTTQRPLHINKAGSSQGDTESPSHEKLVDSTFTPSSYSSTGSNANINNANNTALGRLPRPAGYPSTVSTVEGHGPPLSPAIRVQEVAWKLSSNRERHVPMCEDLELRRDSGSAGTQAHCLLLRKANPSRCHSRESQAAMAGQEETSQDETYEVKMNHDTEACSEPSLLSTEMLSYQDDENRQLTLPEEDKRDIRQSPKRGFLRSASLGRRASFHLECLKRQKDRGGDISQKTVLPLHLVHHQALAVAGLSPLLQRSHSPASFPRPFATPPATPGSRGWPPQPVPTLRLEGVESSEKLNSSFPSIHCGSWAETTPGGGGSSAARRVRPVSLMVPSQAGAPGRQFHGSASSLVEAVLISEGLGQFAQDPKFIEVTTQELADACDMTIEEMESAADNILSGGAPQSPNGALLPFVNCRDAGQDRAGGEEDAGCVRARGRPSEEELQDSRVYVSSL
UniProt Q9NSK7: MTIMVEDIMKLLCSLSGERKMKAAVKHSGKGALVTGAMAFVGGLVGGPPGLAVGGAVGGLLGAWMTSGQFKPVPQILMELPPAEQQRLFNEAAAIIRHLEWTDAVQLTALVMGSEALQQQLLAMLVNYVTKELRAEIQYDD
UniProt Q5SQH8: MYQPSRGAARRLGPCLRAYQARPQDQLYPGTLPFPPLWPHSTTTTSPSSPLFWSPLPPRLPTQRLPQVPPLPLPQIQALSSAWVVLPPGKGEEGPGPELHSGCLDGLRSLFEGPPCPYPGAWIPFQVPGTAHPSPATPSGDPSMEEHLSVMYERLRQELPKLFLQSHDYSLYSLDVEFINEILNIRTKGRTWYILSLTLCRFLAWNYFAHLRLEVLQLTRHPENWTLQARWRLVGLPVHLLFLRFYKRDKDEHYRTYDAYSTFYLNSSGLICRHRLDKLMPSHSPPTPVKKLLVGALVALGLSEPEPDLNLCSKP
UniProt Q99622: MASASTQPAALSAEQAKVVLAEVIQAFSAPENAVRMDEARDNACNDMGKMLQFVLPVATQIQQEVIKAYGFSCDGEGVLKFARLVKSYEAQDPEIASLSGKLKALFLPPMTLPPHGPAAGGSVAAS

Compound in assay [2]: c1ccc([C@@H]2C[C@H]2NC2CCNCC2)cc1
Summed up: as §1

Compound in assay [3]: Cc1sc2c(c1C)C(c1ccc(Cl)cc1)=N[C@@H](CC(=O)OC(C)(C)C)c1nnc(C)n1-2
The essentials:
as §1

Compound in assay [4]: C1=CC=C(C=C1)[C@H](COC2=CC3=C(C=C2)NC(=O)N3)NC(=O)C4=CC=CN(C4=O)CC5=CC(=C(C=C5)F)F
Summed up: as §1

Compound in assay [5]: CC1=C(SC2=C1C(=N[C@H](C3=NN=C(N32)C)CC(=O)N)C4=CC=C(C=C4)Cl)C
The essentials:
as §1

Some of the results follow.

Turning to C17orf80 (UniProt Q9BSJ5), the log2 fold change in assay [1] was inactive: 0.058; in assay [2], inactive: -0.126.
Turning to C1orf109 (UniProt Q9NX04), the log2 fold change in assay [3] was inactive: -0.236.
As to C4orf46 (UniProt Q504U0), the log2 fold change in assay [3] was inactive: 0.082.
For C14orf119 (UniProt Q9NWQ9), in assay [2], the log2 fold change was inactive: 0.137.
For the target C19orf57 (UniProt Q0VDD7), the log2 fold change in assay [1] was inactive: -0.174; in assay [3], inactive: -0.007; in assay [2], inactive: 0.046.
As for C17orf53 (UniProt Q8N3J3), the log2 fold change in assay [3] is inactive: -0.085.
In the case of C4BPA (UniProt P04003), the log2 fold change in assay [1] was inactive: -0.096; in assay [3], inactive: 0.085; in assay [2], inactive: -0.01.
Turning to C11orf24 (UniProt Q96F05), in assay [2], the log2 fold change was inactive: -0.005.
For the target C2orf88 (UniProt Q9BSF0), the log2 fold change in assay [2] was inactive: 0.013.
C1GALT1 (UniProt Q9NS00): the figures for the log2 fold change in assay [1], in assay [3] and in assay [2] were inactive: 0.069, inactive: 0.028 and inactive: 0.075, respectively.
On to C6orf62 (UniProt Q9GZU0), for which the log2 fold change in assay [1] is inactive: 0.107; in assay [3] it was inactive: 0.043; in assay [2], inactive: 0.079.
In the case of C12orf60 (UniProt Q5U649), the log2 fold change is inactive: 0 in assay [1] and inactive: 0.128 in assay [3].
With C9orf16 (UniProt Q9BUW7), the log2 fold change was inactive: -0.069 in assay [1], inactive: 0.093 in assay [3] and inactive: -0.039 in assay [2].
With C3AR1 (UniProt Q16581), the figures for the log2 fold change in assay [4], in assay [5] and in assay [2] were inactive: 0.121, inactive: 0.024 and inactive: -0.083, respectively.
Consider CAMSAP3 isoform 2 (UniProt Q9P1Y5), for which the log2 fold change in assay [1] was inactive: -0.03.
On to CACNA1C isoform 2 (UniProt Q13936), for which the log2 fold change in assay [2] is inactive: -0.592.
Consider C9orf72 (UniProt Q96LT7), for which the log2 fold change in assay [4] was inactive: -0.012; in assay [5] it was inactive: 0.049; in assay [3] it was inactive: -0.028; in assay [2], inactive: 0.002.
For C19orf12 (UniProt Q9NSK7), the log2 fold change in assay [3] is inactive: 0.085.
With CA1 (UniProt E5RIF9), the log2 fold change in assay [2] was inactive: 0.18.
Regarding C6orf136 isoform 4 (UniProt Q5SQH8), the log2 fold change in assay [1] is inactive: -0.198; in assay [3], inactive: -0.059.
Take CACUL1 (UniProt Q86Y37): the log2 fold change in assay [1] is inactive: -0.046; in assay [3], inactive: 0.088; in assay [2] it was inactive: 0.111.
As to CAPNS1 (UniProt K7ES78), the results for the log2 fold change in assay [1] and in assay [3] were inactive: -0.094 and inactive: -0.216, respectively.
On to CALCOCO2 isoform 5 (UniProt Q13137), for which the log2 fold change in assay [2] is inactive: -0.028.
As for C12orf57 (UniProt Q99622), the log2 fold change in assay [1] was inactive: 0.147; in assay [3], inactive: 0.325.
Turning to CAPN1 (UniProt E9PLX0), the log2 fold change is inactive: 0.206 in assay [1] and inactive: -0.013 in assay [2].
Consider CAMKMT (UniProt Q7Z624), for which the log2 fold change in assay [3] was inactive: -0.111.

For the origin of these results see the supplement of paper PMC10849652.
